Source: US20240125770A1, “CELL ANALYSIS” (University of Dundee, priority 2021, published 2024)
At least one structure is not confirmed: it was looked up by name or label, or the drawing left a doubt.

Tested on: human iPSC lines
Test: Cell painting assay (image-based cell phenotyping) on a panel of human iPSC lines from different donors
Settings: 24 hrs; for UMAP embedding of cell painting features: cluster: panel of HipSci human iPSC lines, clusters: 1 DMSO and weak responders, 2 Atorvastatin, Simvastatin, Fluphenazine, 3 Afatinib, Erlotinib, Everolimus and Rapamycin, 4 DNA damaging agents and topoisomerase inhibitors, 5 non-microtubule targeting cytotoxics, 6 Microtubule polymerization effectors; for Uniformity or variation of response between human iPSC lines in UMAP embedding: panel of human iPSC lines from different donors, concentration of Table 2 (5 μM; fenbendazole 3.34 μM)
Protocol: 384-well tissue culture plates (CellCarrier-384 Ultra Microplates, Perkin Elmer 6057300) were coated with human plasma fibronectin (Merck Millipore FC010) at a concentration of 5 μg/cm^2. Cells were passaged as described above with TrypLE Select, counted and seeded on the fibronectin coated wells at a concentration of 3×10^4/cm^2. Cell line plating was in rows, with three wells per condition for each cell line. Cells were incubated for 24 hrs prior to drug treatment, followed by a further 24 hrs incubation before final fixation and staining and high content imaging. Antibody staining of a separate 384-well plate at 48 hrs confirmed that pluripotency was maintained at 48 hrs.
All fixation, permeabilisation and immunostaining were performed at room temperature. Paraformaldehyde 8% in PBS (PFA, Sigma F8775) was added to an equal volume of medium for a final concentration of 4% and incubated for 15 min. Fixed cells were washed in PBS and permeabilised with 0.1% v/v Triton-X100 (Sigma) for 15 min. Following permeabilisation, cells were washed in TBS and stained with DAPI (Thermo Fisher D1306), SYTO 14 (Thermo Fisher S7576), Concanavalin A (Thermo Fisher C11252), Phalloidin Alexa (Thermo Fisher A12381), and WGA (Thermo Fisher W11262) for 1 hr. Mitotracker (Thermo Fisher M22426) staining was performed in live cells with a 30 min incubation at 37° C. prior to fixation. Cell fixation, permeabilisation, staining and washing steps were performed using automated liquid handling systems (405 plate washer, BioTek—Tempest, Formulatrix).
Drug dosing on 384-well plates was performed using an Echo acoustic liquid handler and corresponding software (Labcyte). Screened compounds were selected from the appropriate chemical library plates containing Cloud library (Enamine) and NPSC Control library. For etoposide drug dosing was performed at 1.7 μM. […]
All imaging data were collected on an InCell 2200 high content imager, with a 20× lens and a Quad2 multichroic mirror (GE, Issaquah, WA).
Raw images were imported into OMERO Plus (Glencoe Software, Inc., (9)) and then processed using a custom pipeline in CellProfiler (8) which segmented nuclei, cytoplasm, golgi and cortical protrusions and calculated a range of defined features. All further steps were executed using the Pandas Python library (10). Features for each plate were normalised by the median of features in DMSO control for that plate. Features whose coefficient of variation was greater than 0.50 were removed from further analysis (typically these were Zernike Phase features). We further removed all features with |Spearman coefficient|>0.98. Z-normalised data were then visualised using principal component analysis (PCA) and Uniform Manifold Approximation and Projection (UMAP (11)). For PCA, we calculated the first 15 principal components and variance included in the first two principal components was 77.1%. UMAP parameters were n_neighbours=15, mindist=0.01 and a cosine metric for scaling distance between points. […]
We next used a selection of human iPSCs from the HipSci cohort to test our ability to detect differential effects of FDA-approved drugs, using an image-based cell phenotyping assay. […] Images were recorded in an automated, plate-based imager, then imported into OMERO (9). Images were segmented with respect to the features, ‘nuclei’, ‘cytoplasm’, ‘Golgi’ and ‘protrusions’, using a custom CellProfiler pipeline (13) and image features were then calculated (˜300 features per cell compartment). […]

| Structure (SMILES) | Magnitude of response: heatmap of deviations of all features from DMSO (all cell lines, before Z normalization, 5 μM, FIG. 5A) | UMAP embedding of cell painting features: cluster (5 μM) | Uniformity or variation of response between human iPSC lines in UMAP embedding |
| --- | --- | --- | --- |
| CO[C@H]1C[C@@H]2CC[C@@H](C)[C@@](O)(O2)C(=O)C(=O)N2CCCC[C@H]2C(=O)O[C@H]([C@H](C)C[C@@H]2CC[C@@H](O)[C@H](OC)C2)CC(=O)[C@H](C)/C=C(\C)[C@@H](O)[C@@H](OC)C(=O)[C@H](C)C[C@H](C)/C=C/C=C/C=C/1C [Rapamycin] | the magnitude of the responses differ between the different cell lines | cluster 3 | tight clustering in UMAP embedding |
| CCC(C)(C)C(=O)O[C@H]1C[C@@H](C)C=C2C=C[C@H](C)[C@H](CC[C@@H]3C[C@@H](O)CC(=O)O3)[C@H]21 [Simvastatin] |  | cluster 2 |  |
| CN(C)C/C=C/C(=O)Nc1cc2c(Nc3ccc(F)c(Cl)c3)ncnc2cc1O[C@H]1CCOC1 [Afatinib] |  |  | formed a single cluster distinct from all other tested drugs |
